According to article PMC7190567:
Results are given in words; binding and its absence hold for the method and conditions named. Binding seen in cells or lysates may run through a third protein. These calls come from enrichment with a bait or labelling near it, and not all partners need be listed.

T1: Caveolin-1 (wild type) (dog) (UniProt P33724)
T1 sequence: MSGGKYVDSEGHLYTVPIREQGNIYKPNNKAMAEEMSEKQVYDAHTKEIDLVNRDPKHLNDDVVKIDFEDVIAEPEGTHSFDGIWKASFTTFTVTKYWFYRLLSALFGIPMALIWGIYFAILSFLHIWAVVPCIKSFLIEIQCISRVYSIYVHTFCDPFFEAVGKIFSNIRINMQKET


Biological target: T1, Caveolin-1 (wild type) (dog)
Assay: affinity purification with mass spectrometry; CAV1 immunoprecipitated with polyclonal anti-CAV1 on Dynabeads from B16F10(CAV1) cells (no E-cadherin); trypsin digest, nano-ESI-MS/MS on an LTQ ion trap, Mascot; only proteins unique to this sample listed

| Binder | binding |
| --- | --- |
| mRNA-decapping enzyme 1B (protein, UniProt Q3U564 1-578) MAAAAAGGLPGKGHDISLAALRRHDPYISRIVDVASQVALYTFGHRANEWEKTGVEGTLFVYTRSASPKHGFTIMNRLSMENRTEPITKDLDFQLQNPFLLYRNGTLSIYGIWFYDKEECQRIAKLMKNLTQSEQLKACHGAGSSPVTLSSGEGQEVDILQMLTKAKDEYTKCKTCSEPKQMTNSSAICDNPKLIKPVPVRPSSSQRLQGPAPSKTSDPEPQHLSLTALFGKQDKAPCQETVKPSRTFAHHHHHHHQQQQETRPVHHGVACSLSCEEPRKLSLPVEKQLCPAIQKLMLGSPGLHPLPQHPEQWSCKSGSPSPAGGILPGPVQLGSPWNGRVAHCTQSTCRGHKLLEQLQGAPGAVHKYNPCAPTGPAVATQVAPGQSVAQSQLVYFSGPLQPPAPGHQALRKEQGALPAQAVSLSGSQESSPTVLPTQELLRKLQVVHQEQQAAPRPALAARFPVSAQGSGTEKPLEAWVSKTASMEKQAPLLQSTCAPLRETDNGLMALGGQELPAASSNLLLPLQNWESSTVASRPLTRLQLQEALLNLIQNDDNFLSIIYEAYLFSVTQAAMRTT | binds |
| Eukaryotic translation initiation factor 4E type 1B (protein, UniProt Q3UTA9 1-244) MNKVEGGGHKEEVVVKEKEVVKEKPSEATAEGVQAGEAKDLPGSLKTQRRKAHREHPPEVLSKLHPLQYRWVLWFFKNDRSRAWQDNLQLVTKFNTVEDFWAVYSHIKLASKLSSGCDYALFKEGILPMWEDNRNKQGGRWLLSIDKQLRHFELDRLWLETLLCLVGNCFEEYSREVCGAVVNIRTKRDKIALWTSEAEDKAGVMQIGQIYKERLGISTKTIIGYQAHADTAAKSNNLANKFVV | binds |
| Zinc finger protein 800 (protein, UniProt Q0VEE6 1-662) MPLRDKYCQTDHHHHGCCEPVYILEPGDPPLLQQPVQTSKSGIQQIIECFRSGTKQLKHILLKDVDTIFECKLCRSLFRGLPNLITHKKFYCPPSLQMDDNLPDVNDKQSQAISDLLEAIYPRVDKREYIIKLEPIETNQNAVFQYISRTDNPAEVTESSSTPEQTEVQIQETSSEQLKAVPDADTEVEEAIEPPSIETVVDEAAAPTEEQPQESQADLETSDSSDLGHQLICCLCRKEFNSRRGVRRHIRKVHKKKMEELKKYIETRKTPNQSSKGRSKSVLVSLSRSCPVCCKSFATKANVRRHFDEVHRGLRRDSITPDIATKPGQPLFLDSASPKKSFKTRKQKSSKAEYNLTACKCLLCKRKYSSQIMLKRHMQIVHKITLSGANSKREKGPNNTANSSEVKVELADSVESSPPSITHSPQNELKGTNHSNEKKNTPATQKNKVKQDSESPKSASPSAAGGQQKTRKPKLSAGFDFKQLYCKLCKRQFTSKQNLTKHIELHTDGNNIYVKFYKCPLCTYETRRKRDVIRHITVVHKKSSRYLGKITASLEIRAIKKPIDFVLNKVAKRGPSREEAKHNDSKQDGTSNSPSKKYEVADVGIEVKVTKNFSLHRCNKCGKAFAKKTYLEHHKKTHKANATNSPEGNKTKGRSTRSKALV | binds |
